# In all, about 33,000 sequences were measured (“E-score (-0.5 to 0.5)”: median about -0.0059, highest 2% from about 0.26 on). The list shows a part of the results.
# Biological target: T1, Cin5 (UniProt P40917)
# T1 sequence: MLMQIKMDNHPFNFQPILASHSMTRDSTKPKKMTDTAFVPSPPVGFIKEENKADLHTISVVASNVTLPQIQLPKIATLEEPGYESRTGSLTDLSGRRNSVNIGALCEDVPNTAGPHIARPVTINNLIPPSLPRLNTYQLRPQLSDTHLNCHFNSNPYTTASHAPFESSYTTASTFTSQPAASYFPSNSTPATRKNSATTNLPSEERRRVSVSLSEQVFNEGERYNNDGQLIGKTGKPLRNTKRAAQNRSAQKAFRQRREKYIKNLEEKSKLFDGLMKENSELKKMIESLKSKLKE
# Assay: PBM E-score (8-mer binding enrichment) (E-score (-0.5 to 0.5)); higher = stronger / more preferred TF binding
# Conditions: protein concentration: 100 nM; construct: GST-full length
# How it was run: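 Using PURExpress in vitro transcription/translation, GST-tagged yeast transcription factors were made in full-length or DNA-binding-domain form. These were applied at about 100-200 nM to double-stranded universal all-10-mer Agilent arrays, and bound protein was detected with fluorescent anti-GST. Scans were normalised with masliner before the Universal PBM Analysis Suite assigned E-scores to ungapped eight-base words pooled with their reverse complements.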
row,Sequence,PBM E-score
1,GATACACA,0.0946
2,CATTTTGG,0.0271
3,CTAAATCA,0.00062
4,AGAAATAG,0.109
5,GTATTCAA,0.16
6,ACGGAGCG,0.0709
7,AACAGAAT,-0.00288
8,ACTTTAAT,0.158
9,ATGCAGTA,0.166
10,GAAAGAGA,0.0604
11,CTTCTAGA,-0.146
12,ACCGTCCC,-0.149
13,ATCCGCTG,0.0586
14,AACTTCCG,0.0891
15,AAGATAGC,-0.0127
16,AAGCTTTG,0.0433
17,ATGTGAGC,-0.0106
18,TCAGGTCA,0.0576
19,ACTCGTGA,-0.124
20,AACGTTCG,-0.0146
21,CGTCCCGC,-0.00601
22,CACCTGCG,-0.0584
23,ATATTGGC,0.0862
24,AAGTGCGT,-0.0503
25,CTCGGCAG,-0.0503

row,Sequence,PBM E-score
1,CCGGGTGA,0.00652
2,AAGCACCT,0.0923
3,GCATAAAA,0.0577
4,TCCAATAA,0.132
5,AACGTACT,0.105
6,ATAGCCTG,-0.218
7,AAGCCCAG,-0.048
8,AAGGCAAT,0.0678
9,GGTGTTGA,-0.0286
10,CGCCCCGC,-0.023
11,ACATAGAC,0.0249
12,ACACATCC,0.0576
13,GACTGCAA,-0.0854
14,AAAGGATT,-0.00637
15,CAACCACA,0.1
16,CTGACAAA,0.186
17,AAAGTGCT,-0.0393
18,AAAAGGCA,0.0609
19,AGCACCGA,0.0341
20,ATACTGGA,0.153
21,GCACTCAA,-0.167
22,ACCCCGGA,-0.00022
23,TGTACACA,0.0885
24,ATTAAGAC,-0.0447
25,CCTGATTC,0.0656

row,Sequence,PBM E-score
1,CGCATAAA,0.113
2,ATATCACG,0.173
3,GGTTGAAC,0.0825
4,ACCTGGGC,-0.282
5,AAGAATCA,0.253
6,CATTAACG,0.0883
7,GCGTGTCC,0.005
8,ACACATGT,0.0736
9,ATCCGCTA,0.13
10,CATTCAGA,-0.052
11,GCACGTGA,-0.0905
12,AACTTAAC,0.231
13,ACTACTTG,0.168
14,ATTTCTAC,-0.0323
15,ATACCGTG,0.00629
16,GAAGCACA,0.101
17,CAATCCCG,0.259
18,CCCCGGGG,-0.33
19,ATGGACAA,0.141
20,AGGGTATG,0.0272
21,AGGCAGGC,-0.168
22,CCAATTCC,0.13
23,ATTATCGC,0.245
24,CGGAAAAA,0.128
25,AACTGTGG,0.158

row,Sequence,PBM E-score
1,GAGAGGAA,0.0247
2,CGCGTCAG,-0.0883
3,ATACTCAT,0.0642
4,ACCAGAAC,0.147
5,AGAAAGGA,-0.116
6,ATTTAACA,0.209
7,AATCAAAT,0.176
8,AAGACGAC,0.14
9,AGCCAACC,0.18
10,TGAGATCA,-0.0191
11,CTTCTTCC,-0.107
12,ACCGGGGA,-0.226
13,ACACTGCA,-0.118
14,ACGTTTGG,-0.202
15,AAGGCATC,-0.242
16,CTAAAGCA,0.0792
17,ATCAGGTG,5e-05
18,ATGTATCG,0.232
19,GTGTAAAC,-0.0602
20,CTAGAGTC,-0.356
21,AGAGACTC,-0.0094
22,CGAGTGCG,0.0908
23,AACGCATA,0.0552
24,CTGTGTTC,0.129
25,CGCAATAG,0.0664

row,Sequence,PBM E-score
1,CGATGGCA,-0.0471
2,ACCGACGG,-0.0139
3,CAATACCC,0.148
4,TCCGAAGA,0.00859
5,AACAGTGA,-0.0463
6,GTACAGTA,0.0783
7,CCCCCGCA,-0.351
8,AGTCACAG,-0.0359
9,TTACGCAA,0.306
10,CAGAAAGG,-0.0597
11,GTGATAAA,-0.0525
12,GCGTCCAA,-0.177
13,TAGCACAA,-0.0429
14,TGGCGAAA,-0.0645
15,CTTCAATA,0.0873
16,CAGGGAAG,-0.121
17,CGGAGAAC,-0.0623
18,TACGCTCA,0.107
19,GAATTTGA,0.0437
20,GAGAATCC,0.0215
21,TAAGACTA,0.117
22,CTTAATAC,0.191
23,ACCTCTCC,-0.244
24,CGTCTCAG,-0.138
25,AAAGATCG,0.0677

row,Sequence,PBM E-score
1,AACTCGAG,0.173
2,GAAGGGAA,-0.167
3,CGAGCGTA,-0.0619
4,CATAGCTC,-0.197
5,ACAGTGGA,0.0429
6,CAGATTAC,0.246
7,ACGATGTA,0.107
8,CAGGGTCC,-0.275
9,CGATGATA,-0.0237
10,CCCAATAC,-0.00655
11,ACCATAAA,0.0774
12,GGAGTGTA,-0.177
13,ATTTACCC,0.104
14,GAGTGTCA,0.114
15,AGAGTGCA,-0.0185
16,TAGACGAA,-0.0114
17,AAGAACCC,0.00964
18,AGGAACGG,0.00402
19,CATAACAG,0.0983
20,CTTAAAGA,-0.141
21,CCCAAGCG,0.0138
22,AACTTGTA,0.0012
23,GCCCACCA,-0.0969
24,ATTAACAC,0.271
25,CTTTGGTA,-0.205

row,Sequence,PBM E-score
1,TGTTACAA,0.146
2,GTACTCGA,0.0237
3,GAGATCTA,-0.00668
4,CATATGAA,0.196
5,GTCCACGA,-0.185
6,AGCTAATC,0.208
7,TAGCCAGA,-0.00108
8,GGAGCTAC,-0.236
9,ACGCTCGC,-0.0869
10,AGAGTCTG,-0.29
11,AATTGTAA,0.0199
12,AGCCCAGC,-0.0958
13,ACAGGGAA,-0.146
14,AAGCTACA,0.00755
15,CATCACGC,-0.0568
16,ATGCTTAA,0.146
17,AAGATTAA,0.18
18,GAAACCTA,-0.126
19,GACCCTTA,-0.183
20,CATTCCTC,0.036
21,AAATGCGT,0.0849
22,AGCGGCCC,-0.315

# From the supplement of paper PMC3334620
